Assay results published in patent US20220348650A1.

Chains of the proteins cited; added tags and fusions are not shown. Lines headed by an entry give the natural chain unless they say otherwise; changes in a name come on top.
UniProt Q495A1: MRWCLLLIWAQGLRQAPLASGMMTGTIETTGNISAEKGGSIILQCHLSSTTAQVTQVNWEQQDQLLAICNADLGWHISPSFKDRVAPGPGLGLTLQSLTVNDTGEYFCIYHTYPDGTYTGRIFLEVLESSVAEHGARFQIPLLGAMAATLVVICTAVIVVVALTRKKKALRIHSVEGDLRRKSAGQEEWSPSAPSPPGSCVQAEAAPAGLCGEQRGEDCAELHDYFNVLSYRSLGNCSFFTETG

Molecular target: hTIGIT on the surface of T cells of B-hPD-1/hTIGIT double humanized mice (human extracellular region in the mouse genome (C57BL/6)) (UniProt Q495A1)
Experiment: flow cytometry on spleen T cells, anti-human Fc FITC

binding: binds
B1: h10D8OF (antibody, human IgG1, kappa, V domains shown)
VH: QVQLVESGGGVVQPGRSLRLDCKASGFTFSSYGMSWVRQAPGKGLELVATINSNGGSTYYPDSVKGRFTISRDNSKNTLFLQMNSLRAEDTAVYYCARLGTGTLGFAYWGQGTLVTVSS
VL: EIVMTQSPATLSLSPGERATLSCKASQDVKTAVSWYQQKPGQAPRLLIYWASTRATGIPARFSGSGSGTDYTLTISSLEPEDFAVYYCQQHYSTPWTFGQGTKVEIKR

No constants are given. Whether binding was seen depends on the method and setting. Binding calls can cover weak binding; strength is not graded here.
